Measurements taken from publication PMC7668254.

System: DROSHA fragment D3 + DGCR8 fragment G1
Assay: EMSA
Details: 2 mM EDTA, 1.5 pmol RNA, 5-25 pmol D3-G1 in 10 uL, 50 mM Tris-HCl pH 7.5, 150 mM NaCl, 0.2 mg/ml BSA, 10% glycerol, 1 mM DTT, on ice 60 min, 4% native PAGE in 1x TBE at 4 C, recombinant protein

“GGAGAACUGAAUUCCAUGGGUUGUGUCAGUGUCAGACCUGUGAAAUUCAGUUCUUCAG [Short pri-mir-146a_G]”: binds more weakly.

Weaker means in comparison with the reference protein, sequence or condition of that experiment.
